Among all 1,000 compounds or so, fewer than 10 were called active.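 How the source made its calls: active means fitted half-maximal concentration no higher than twice the top valid tested dose, with signal falling; inconclusive means flat curve with 30 to 70% inhibition, or poor fit; inactive means the rest.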 The list shows a part of the results. Measured potencies and affinities stand elsewhere.
molecular target: Golgi-associated PDZ and coiled-coil motif-containing protein (Homo sapiens) (UniProt Q9HD26); assay: CAL PDZ domain peptide-binding inhibitors, dose response, biochemical, fluorescence polarization, untagged CAL PDZ, cherry-pick, set 2 (AID 602254); settings: Purified CAL PDZ, TMR peptide fluorescence polarization; at 60 µM (top of the series);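 further: 0% = DMSO neutral control and -100% = unlabeled peptide PRC23 positive control; more negative means stronger blocking of peptide binding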

Activity change, negative = inhibition, inactive:
CCC(=O)N1CCc2cc(Br)cc(S(=O)(=O)N3CCCCC3CC)c21 (stereo not given) -1.65%
COc1cc(N)ccc1Cc1ccc(N)cc1OC -0.642%
Cc1cccc(-c2ncc(CN3CCCC(CO)(Cc4cccc(Cl)c4)C3)cn2)c1 (stereo not given) 2.64%
O=C(NCCN1CCOCC1)C(=O)NCC1OCCN1S(=O)(=O)c1ccc(F)cc1 (stereo not given) 4.18%
O=C(COc1ccc2cc(Br)ccc2c1)N1CCOCC1 0.913%
COC(=O)c1ccc(OCC(O)CN2CCc3cc(OC)c(OC)cc3C2c2ccccc2)cc1 (stereo not given) 2.58%
NC(=O)c1ccc(NC(=O)COC(=O)C2CCN(S(=O)(=O)c3cccs3)CC2)cc1 0.324%
O=C1NC(=O)/C(=C\c2cn(Cc3ccccc3F)c3ccccc23)N1 -1.51%
Cc1nc2c(c(C)nn2-c2ccccc2)c(C)c1C -4.68%
COc1ccccc1OCC(O)Cn1nc(C)cc1C (stereo not given) 0.574%
CCCOC(=O)c1ccc(NC(=O)C2CCCO2)cc1 (stereo not given) 0.564%
CCC(=O)Nc1cccc(NC(=O)c2ccc3c(c2)OCO3)c1 0.613%
COc1ccccc1NC(=S)NNC(=O)c1ccc(Cl)cc1Cl 3.15%
CCCC(=O)N1CCN(c2ccc(NC(=S)NC(=O)c3cccc(C)c3)cc2)CC1 4.12%
CC1c2cccn2CCN1S(=O)(=O)c1ccc(F)cc1 (stereo not given) -0.77%
CC(C)CNC(=S)NNC(=O)CC(C)O (stereo not given) 1.27%
CC(NC(=S)NC(=O)c1ccccc1Br)c1ccccc1 (stereo not given) 1.12%
O=C(COc1ccc(Cl)cc1)c1ccc(O)cc1O 0.513%
Cc1ccc(Cl)c(NC(=O)COC(=O)C2CCC2)c1Cl -2.31%
COc1ccc(/C=C/c2noc(-c3ccccc3OC(C)=O)n2)cc1 -0.883%
CC(=O)c1cccc(NC(=O)CCNC(=O)c2cccc(C)c2)c1 -1.3%
CCc1nnc(NC(=O)c2cc(S(=O)(=O)N3CCCCC3)ccc2C)s1 1.84%
O=C(Nc1ccc2c(c1)CCC2)c1ncoc1-c1ccccc1F -1.28%
CCOc1ccc(S(=O)(=O)NC(C)C(=O)NCc2ccc3c(c2)OCO3)cc1 (stereo not given) -0.709%
COc1cc(COCC(O)CN2CCOCC2)cc(OC)c1OC (stereo not given) -2.47%
Cc1cccc(NC(=O)C2CCN(S(C)(=O)=O)CC2)c1C -0.527%
COc1ccc(S(=O)(=O)N2CCOC2CNC(=O)C(=O)NCc2ccncc2)cc1 (stereo not given) -0.076%
CCN1C(=O)CS/C1=N\S(=O)(=O)c1ccccc1 4.08%
CCN(CC(=O)Nc1cccc(OC)c1)CC(=O)Nc1ccc(C)cc1Cl -6.97%
COc1cc(SC)ccc1C(=O)N1CCN(Cc2ccc3c(c2)OCO3)CC1 1.09%
COc1cc(OC)c(C(=O)NCc2ccc3c(c2)OCO3)cc1OC 1.28%
O=C(c1cc(COc2ccccc2)on1)N1CCCC(CN2CCOCC2)C1 (stereo not given) 2.19%
CC1CCCCC12NC(=O)N(CC(=O)OCc1cccc(F)c1)C2=O (stereo not given) -1.32%
O=C(Nc1ccccc1N1CCOCC1)c1cccnc1 3.51%
O=C(NC1CCCC1)C(c1ccccn1)N(Cc1ccc(F)cc1)C(=O)c1csnn1 (stereo not given) -1.12%
O=C(NC1CCN(Cc2ccccc2)C1)c1cc(S(=O)(=O)N2CCOCC2)ccc1Cl (stereo not given) 1.45%
O=C(COC(=O)c1cn(-c2ccccc2)nc1-c1ccccc1)Nc1ncc(Cl)cc1Cl -1.75%
Cc1ccc(NC(=S)NC(=O)C2CC2)cc1Cl 1.65%
Cc1cc(NS(=O)(=O)c2c(C(=O)N3CCOCC3)c(C)n(C)c2C)ccc1Br 2.18%
Cc1ccccc1OCC(=O)OCC(=O)c1cc(C)n(C2CC2)c1C -0.267%
Cc1ccc(NC(=O)C(NC2CCCC2)c2ccccc2)cc1Cl (stereo not given) -0.149%
O=C(CNC(=O)c1ccccc1Cl)N/N=C/c1ccc2c(c1)OCO2 1.37%
Cc1ccc(C(=O)NCC(c2cccs2)N(C)C)cc1S(=O)(=O)N1CCOCC1 (stereo not given) 1.91%
COC(=O)c1ccccc1NC(=O)C1CCN(C(=O)c2cc(OC)cc(OC)c2)CC1 -2.8%
COc1ccc(CCNS(=O)(=O)c2ccccc2)cc1OC -8.76%
CCCN(CC(=O)Nc1ccccc1OC)C(=O)c1ccccn1 0.9%
CCCN(CC(=O)Nc1cc(C)on1)CC(=O)Nc1ccc(F)c(F)c1F -0.264%
O=C(NCCc1ccccc1F)c1ccc2c(c1)OCCO2 2.65%
O=C(CCN1C(=O)/C(=C\c2ccccc2Cl)SC1=S)Nc1cccnc1 -0.105%
O=C(c1ccccc1)N1CCN(c2ccccc2)CC1 -1.91%
Cc1c(Cl)cccc1NC(=S)NCc1ccc2c(c1)OCO2 -0.54%
COc1ccc2[nH]cc(CCNC(=O)Cc3ccc(F)cc3)c2c1 -0.01%
COc1ccccc1CN(C)S(=O)(=O)c1cccs1 1.57%
CC(=O)c1cccc(NS(=O)(=O)c2ccc(NC(=O)N3CCCCC3)cc2)c1 0.347%
COc1ccc(-c2cc3c(=O)n(CC(=O)NCc4ccc(F)cc4)ncn3n2)cc1 4.45%
COc1ccc(C(C)(C)C)cc1NC(=O)COC(=O)CN1C(=O)NC2(CCCCC2C)C1=O (stereo not given) 2.45%
O=S(=O)(c1ccccc1)N1CCN(CCc2ccccc2)CC1 -1.5%
O=C(NCc1cccs1)C1CCCN1S(=O)(=O)c1ccccc1F (stereo not given) 0.958%
Cc1cccc(C(=O)Nc2ccn(C)n2)c1 0.841%
CCOc1ccccc1N1C(=O)CN(Cc2ccc(OC)c(OC)c2)C1=S -0.417%
O=C(O)Cc1sc(-c2ccc(Cl)cc2)nc1-c1ccccc1 3.43%
Cc1cc(C(=O)NNC(=O)c2ccc(C(F)(F)F)cc2)no1 0.569%
COc1ccc(S(=O)(=O)NCCc2ccncc2)cc1 -1.81%
NC(=O)NCC(=O)N1CCC(C(O)(c2ccccc2)c2ccccc2)CC1 0.872%
O=S1(=O)c2c(F)cccc2OC(COc2ccccc2)CN1CCc1ccc(F)cc1 (stereo not given) 0.686%
CCc1ccc(C(=O)NNC(=O)c2c(CC)noc2C)cc1 -3.88%
Cc1ccc([C@@H]2CC=C(C(=O)O)[C@H](c3ccccc3)N2S(=O)(=O)c2ccc(C)cc2)cc1 1.02%
CN(C)S(=O)(=O)c1ccc(C(=O)NC2CCCc3ccccc32)cc1 (stereo not given) -0.666%
CCC(=O)c1ccc(N2CCCCC2)c(F)c1 0.055%
COc1ccc(CN2CCC(Oc3ccc(C(=O)N4CCCC4)cc3)CC2)c(F)c1 -0.736%
CCN(C(=O)c1cccc(NC(=O)c2ccccc2)c1)C1CCCCC1 2.71%
COc1ccccc1CN1CCNC(=O)C1CC(=O)NCc1c(C)n[nH]c1C (stereo not given) -2.98%
CC1CCN(C(=O)COC(=O)c2ccc(N3CCCC3=O)cc2)CC1 -1.03%
Cc1ccc2c(c1)N(CC(=O)NCCCN1CCN(C)CC1)C(=O)CO2 0.41%
C=CCOc1cccc(C(=O)N2CCCC(CCC(=O)NCc3ccccc3F)C2)c1 (stereo not given) 6.57%
COc1ccc(CN(C)C(=O)CNC(=O)CNC(=O)c2ccc(Cl)cc2Cl)cc1F 0.378%
COc1ccc(NC(=O)Nc2nnc(C(C)(C)C)s2)cc1 -1.28%
O=C(CN1CCN(c2ccc(O)cc2)CC1)N1CCc2ccccc21 -2%
CCOc1ccccc1NC(=O)C1CCN(C(=O)Cc2ccccc2)CC1 6.1%
Cc1ccccc1NC(=O)c1ccc(NC(=O)C2CCCO2)cc1 (stereo not given) -2.35%
O=C(C1CC1)N1CCc2cc(S(=O)(=O)N3CCOCC3)ccc21 2.05%
O=C(O)c1ccc(C(=O)Nc2cccc(NC(=O)C3CCCO3)c2)cc1 (stereo not given) -0.872%
Cc1ccccc1CNC(=O)c1ccc2ccccc2n1 0.33%
N#Cc1ccc(COC(=O)c2cnc(Cl)c(Cl)c2)cc1 -6.12%
CC(O)CNCCNCc1cccs1 (stereo not given) 0.688%
CNC(=O)c1cccc(NC(=O)CCCNC(=O)c2ccc(Cl)cc2)c1 1.04%
Cc1cc(CN(C)C(=O)C2CCC(=O)N(CCc3cccc(F)c3)C2)on1 (stereo not given) -0.419%
O=C(Cc1ncon1)Nc1ccc(F)c(F)c1F -0.699%
O=C(Cn1cccc1C(=O)c1ccccc1)NCc1ccccc1Cl -3.87%
CCOC(=O)c1ccc(-n2c(C)nc3c(cnn3-c3ccccc3Cl)c2=O)cc1 -0.176%
CCc1ccccc1N(CC(=O)NCCc1ccccc1)C(=O)CCC(=O)Nc1ccccn1 -1.54%
CCCCCC(=O)NC(=S)Nc1ccc2oc(=O)ccc2c1 -2.64%
CCOCCCn1c(=S)[nH]c2cc(C(=O)NC3CCCC(C)C3C)ccc2c1=O (stereo not given) -3.75%
CC(C)(C)CN1CCNC(=O)C1CC(=O)NCCN1CCCc2ccccc21 (stereo not given) -0.23%
CCC(C)(C(=O)NC1CCCC1)N(C(=O)CC1NC(=O)NC1=O)c1ccc(C)cc1 (stereo not given) 2.35%

Grouped by structure, the compounds so far with four or more nitrogen atoms.
Activity change, negative = inhibition, inactive:
O=C(NCCN1CCOCC1)C(=O)NCC1OCCN1S(=O)(=O)c1ccc(F)cc1 (stereo not given) 4.18%
CCCC(=O)N1CCN(c2ccc(NC(=S)NC(=O)c3cccc(C)c3)cc2)CC1 4.12%
CCc1nnc(NC(=O)c2cc(S(=O)(=O)N3CCCCC3)ccc2C)s1 1.84%
COc1ccc(S(=O)(=O)N2CCOC2CNC(=O)C(=O)NCc2ccncc2)cc1 (stereo not given) -0.076%
O=C(NC1CCCC1)C(c1ccccn1)N(Cc1ccc(F)cc1)C(=O)c1csnn1 (stereo not given) -1.12%
O=C(COC(=O)c1cn(-c2ccccc2)nc1-c1ccccc1)Nc1ncc(Cl)cc1Cl -1.75%
CCCN(CC(=O)Nc1cc(C)on1)CC(=O)Nc1ccc(F)c(F)c1F -0.264%
COc1ccc(-c2cc3c(=O)n(CC(=O)NCc4ccc(F)cc4)ncn3n2)cc1 4.45%
COc1ccccc1CN1CCNC(=O)C1CC(=O)NCc1c(C)n[nH]c1C (stereo not given) -2.98%
Cc1ccc2c(c1)N(CC(=O)NCCCN1CCN(C)CC1)C(=O)CO2 0.41%
COc1ccc(NC(=O)Nc2nnc(C(C)(C)C)s2)cc1 -1.28%
CCOC(=O)c1ccc(-n2c(C)nc3c(cnn3-c3ccccc3Cl)c2=O)cc1 -0.176%
CCc1ccccc1N(CC(=O)NCCc1ccccc1)C(=O)CCC(=O)Nc1ccccn1 -1.54%
CC(C)(C)CN1CCNC(=O)C1CC(=O)NCCN1CCCc2ccccc21 (stereo not given) -0.23%
CCC(C)(C(=O)NC1CCCC1)N(C(=O)CC1NC(=O)NC1=O)c1ccc(C)cc1 (stereo not given) 2.35%

Source: PubChem BioAssay AID602254 (Broad Institute, 2012)
